Reference: the supplement of paper PMC10382679
Single values of this set are uncertain.

B1: Rpb7; numbered along this chain (parent)
chain: MFFIKDLSLNITLHPSFFGPRMKQYLKTKLLEEVEGSCTGKFGYILCVLDYDNIDIQRGRILPTDGSAEFNVKYRAVVFKPFKGEVVDGTVVSCSQHGFEVQVGPMKVFVTKHLMPQDLTFNAGSNPPSYQSSEDVITIKSRIRVKIEGCISQVSSIHAIGSIKEDYLGAI

Columns and labels:
[1] = variants of: B1; assay: log2 fold change of mutant abundance, UV-irradiated vs unirradiated; higher = more UV resistant (enriched after UV); details: with Saccharomyces cerevisiae rad7Δ rad26Δ; UV dose (J/m2): 10; genetic background: rad7Δ rad26Δ rpb7Δ + plasmid RPB7 library; outgrowth: 10 cell divisions
[2] = variants of: B1; assay: NOISeq theta enrichment statistic, UV-irradiated vs unirradiated (dimensionless); higher = more UV resistant (enriched after UV); details: with Saccharomyces cerevisiae rad7Δ rad26Δ; UV dose (J/m2): 10; genetic background: rad7Δ rad26Δ rpb7Δ + plasmid RPB7 library; outgrowth: 10 cell divisions

Variant | log2 fold change of mutant abundance [1] | NOISeq theta enrichment statistic [2]
Q96W | 0.0286 | 0.0332
Q96R | 0.0135 | 0.101
Q96P | -0.00305 | -0.0179
Q96S | 0.0449 | 0.104
Q96H | 0.0616 | 0.326
Q96N | 0.0729 | 0.151
Q96T | 0.0675 | 0.289
Q96K | 0.00727 | 0.0644
Q96L | -0.03 | -0.0953
Q96I | 0.134 | 0.123
Q96E | 0.0229 | 0.115
Q96G | 0.0596 | 0.077
Q96D | 0.0731 | 0.0841
Q96V | 0.0635 | 0.0677
Q96M | 0.00307 | 0.00513
Q96A | 0.0987 | 0.131
Q96C | 0.042 | 0.0378
Q96Y | 0.107 | 0.109
G98D | 0.0197 | 0.0217
G98A | -0.068 | -0.0944
G98K | 0.195 | 0.195
G98Q | 0.092 | 0.0819
G98T | 0.081 | 0.0514
G98W | 0.0229 | 0.0798

Some of the entries so far, in markdown:

| Variant | log2 fold change of mutant abundance [1] | NOISeq theta enrichment statistic [2] |
| --- | --- | --- |
| Q96A | 0.0987 | 0.131 |
| Q96C | 0.042 | 0.0378 |
| Q96Y | 0.107 | 0.109 |
| G98D | 0.0197 | 0.0217 |
| G98A | -0.068 | -0.0944 |
| G98K | 0.195 | 0.195 |
| G98Q | 0.092 | 0.0819 |

Later entries.

Variant | log2 fold change of mutant abundance [1] | NOISeq theta enrichment statistic [2]
G98R | 0.00677 | 0.056
G98S | 0.0415 | 0.048
G98C | 0.24 | 0.245
G98E | -0.0228 | -0.131
G98V | 0.00328 | 0.00825
G98L | 0.285 | 0.199
G98M | 0.198 | 0.168
V103E | 0.0663 | 0.299
V103S | 0.0448 | 0.051
V103K | 0.287 | 0.305
V103M | 0.298 | 0.297
V103R | 0.00335 | 0.00472
V103F | 0.193 | 0.166
V103Q | -0.176 | -0.128
V103G | 0.0608 | 0.241
V103C | 0.426 | 0.328
V103H | 0.0184 | 0.0152
V103N | 0.025 | 0.0188
V103D | 0.0718 | 0.0948
V103Y | 0.368 | 0.322
V103T | -0.079 | -0.074
V103L | 0.0316 | 0.13
V103W | 0.261 | 0.128
V103I | 0.0576 | 0.263

Variant | log2 fold change of mutant abundance [1] | NOISeq theta enrichment statistic [2]
V103A | -0.085 | -0.205
S95R | 0.161 | 0.119
S95C | -0.029 | -0.0959
S95T | -0.0573 | -0.253
S95M | 0.296 | 0.215
S95V | -0.0487 | -0.0822
S95K | -0.311 | -0.259
S95H | -0.0856 | -0.0725
S95N | 0.0144 | 0.0187
S95W | 0.215 | 0.202
S95I | 0.0109 | 0.021
S95Y | -0.0416 | -0.373
S95P | 0.0264 | 0.0378
S95A | 0.0241 | 0.0385
S95L | 0.0316 | 0.18
S95G | 0.0546 | 0.0421
S95D | -0.281 | -0.271
S93C | 0.391 | 0.288
S93P | 0.00476 | 0.0101
S93L | -0.0693 | -0.239
S93Q | -0.0994 | -0.123
S93V | -0.0396 | -0.0444
S93F | 0.102 | 0.116
S93R | -0.0299 | -0.0232

Variant | log2 fold change of mutant abundance [1] | NOISeq theta enrichment statistic [2]
S93W | -0.0972 | -0.0858
S93T | -0.0473 | -0.276
S93K | -0.173 | -0.221
S93H | -0.0521 | -0.0588
S93G | -0.327 | -0.239
S93Y | -0.0257 | -0.0495
S93E | 0.105 | 0.131
S93I | -0.0485 | -0.0473
S93N | -0.188 | -0.171
S93A | 0.017 | 0.0585
S93D | -0.295 | -0.21
V91R | 0.148 | 0.0975
V91I | -0.0179 | -0.0627
V91S | 0.129 | 0.166
V91L | 0.0584 | 0.0935
V91G | -0.0376 | -0.142
V91M | 0.216 | 0.21
V91H | 0.133 | 0.0838
V91F | 0.0191 | 0.0623
V91T | -0.0212 | -0.0186
V91W | -0.0187 | -0.0176
V91A | -0.153 | -0.364
V91Y | 0.108 | 0.0863
V91E | -0.229 | -0.238

Variant | log2 fold change of mutant abundance [1] | NOISeq theta enrichment statistic [2]
V91D | 0.0791 | 0.202
V91N | -0.102 | -0.0761
V91C | 0.0174 | 0.0225
V101N | 0.306 | 0.202
V101K | 0.0899 | 0.0834
V101G | -0.0131 | -0.0878
V101L | 0.029 | 0.131
V101M | -0.0453 | -0.24
V101D | 0.0616 | 0.0634
V101Y | -0.353 | -0.167
V101E | 0.119 | 0.709
V101R | 0.0538 | 0.123
V101S | -1.89e-05 | -2.5e-05
V101I | -0.0167 | -0.0195
V101Q | 0.488 | 0.362
V101F | -0.00291 | -0.00246
V101T | 0.11 | 0.115
V101C | 0.064 | 0.0657
V101A | 0.0925 | 0.289
V101W | -0.00921 | -0.019
Q102P | 0.106 | 0.235
Q102R | -0.0742 | -0.405
Q102N | 0.121 | 0.216
Q102M | 0.641 | 0.463

Variant | log2 fold change of mutant abundance [1] | NOISeq theta enrichment statistic [2]
Q102E | -0.0177 | -0.059
Q102A | 0.176 | 0.207
Q102D | 0.241 | 0.22
Q102K | -0.00216 | -0.0191
Q102I | -0.0032 | -0.00316
Q102S | -0.19 | -0.118
Q102T | 0.0287 | 0.0475
Q102Y | 0.566 | 0.418
Q102G | -0.0211 | -0.0181
Q102V | 0.0398 | 0.0318
Q102L | 0.0405 | 0.25
Q102H | 0.133 | 0.886
G104M | -0.0502 | -0.0358
G104N | 0.214 | 0.198
G104K | -0.162 | -0.0878
G104I | 0.207 | 0.168
G104E | -0.0305 | -0.0429
G104C | 0.000773 | 0.00192
G104A | 0.15 | 0.253
G104D | 0.00947 | 0.0428
G104H | -0.342 | -0.22
V92D | -0.00661 | -0.0178
V92C | 0.0158 | 0.0189
V92I | -0.0262 | -0.136

Variant | log2 fold change of mutant abundance [1] | NOISeq theta enrichment statistic [2]
V92G | -0.0304 | -0.122
V92S | -0.0465 | -0.0495
V92L | 0.0907 | 0.19
V92Y | 0.0874 | 0.0832
V92E | 0.206 | 0.19
V92A | 0.00858 | 0.0257
V92M | 0.0861 | 0.0754
V92R | 0.388 | 0.262
V92F | 0.0176 | 0.0595
V92T | -0.221 | -0.218
V92H | 0.491 | 0.274
V92N | 0.385 | 0.253
H97P | 0.0277 | 0.112
H97V | -0.116 | -0.125
H97I | 0.0985 | 0.168
H97S | -0.0398 | -0.115
H97L | 0.0219 | 0.0765
H97T | -0.000674 | -0.00391
H97Y | -0.304 | -1.04
H97G | -0.0319 | -0.0365
H97E | 0.083 | 0.154
H97C | 0.0168 | 0.0177
H97Q | -0.036 | -0.213
H97D | -0.00906 | -0.0582

Variant | log2 fold change of mutant abundance [1] | NOISeq theta enrichment statistic [2]
H97A | 0.125 | 0.203
H97M | -0.149 | -0.114
H97K | -0.03 | -0.154
H97R | -0.0658 | -0.285
H97F | -0.153 | -0.162
C94A | 0.163 | 0.129
C94T | 0.207 | 0.143
C94S | -0.0804 | -0.388
C94H | 0.147 | 0.109
C94M | 0.0367 | 0.0207
C94D | -0.11 | -0.095
C94R | -0.299 | -0.557
C94Y | 0.0215 | 0.0522
C94N | 0.25 | 0.153
C94V | -0.0244 | -0.0509
C94F | 0.00321 | 0.0158
C94L | 0.107 | 0.138
C94G | -0.0856 | -0.361
C94I | 0.0557 | 0.0607
C94W | -0.0816 | -0.177
E100H | 0.21 | 0.163
E100T | 0.0207 | 0.0227
E100Y | -0.0605 | -0.0627
E100M | 0.441 | 0.27

Variant | log2 fold change of mutant abundance [1] | NOISeq theta enrichment statistic [2]
E100I | -0.207 | -0.243
E100Q | 0.0221 | 0.0514
E100V | -0.279 | -1.48
E100L | -0.311 | -0.266
E100C | 0.777 | 0.512
E100K | -0.0329 | -0.168
E100S | -0.269 | -0.241
E100A | 0.0396 | 0.0952
E100G | -0.255 | -1.13
E100N | -0.232 | -0.236
E100R | -0.00739 | -0.0131
E100D | -0.0471 | -0.313
E100W | 0.507 | 0.291
T90L | -0.0553 | -0.0568
T90N | -0.0984 | -0.172
T90V | 0.451 | 0.333
T90P | -0.0787 | -0.291
T90Q | -0.0579 | -0.117
T90M | 0.157 | 0.158
T90S | -0.00471 | -0.0199
T90R | -0.0313 | -0.0933
T90Y | 0.349 | 0.225
F99Y | -0.131 | -0.517
F99N | -0.311 | -0.282

Variant | log2 fold change of mutant abundance [1] | NOISeq theta enrichment statistic [2]
F99S | 0.0391 | 0.132
F99V | 0.0211 | 0.115
F99H | -0.108 | -0.0889
F99C | -0.0108 | -0.0513
F99T | -0.0146 | -0.0159
F99W | 0.492 | 0.439
F99M | -0.0712 | -0.0729
F99P | 0.0648 | 0.0431
F99E | 0.234 | 0.168
F99A | -0.173 | -0.167
F99L | 0.0114 | 0.109
F99D | 0.108 | 0.107
F99I | -0.0371 | -0.335
F99G | -0.0979 | -0.0824
F99R | 0.0339 | 0.0331
